Assay results: article doi:10.1101/2023.12.07.570680
These are yes or no findings as the source states them, for the method shown. For part of these data: In cells and extracts the contact can be indirect. Some binding calls cover weakened binding; strength is not graded here. Where a sequence is shown, tags or fusion partners need not be part of it. One block for each binder: values may come before it.

Assays:
[1] = molecular target: T1, CFM2 (yeast two-hybrid fusion, transit peptide removed) (Arabidopsis thaliana) (UniProt Q8L7C2); test: two-hybrid
T1 sequence: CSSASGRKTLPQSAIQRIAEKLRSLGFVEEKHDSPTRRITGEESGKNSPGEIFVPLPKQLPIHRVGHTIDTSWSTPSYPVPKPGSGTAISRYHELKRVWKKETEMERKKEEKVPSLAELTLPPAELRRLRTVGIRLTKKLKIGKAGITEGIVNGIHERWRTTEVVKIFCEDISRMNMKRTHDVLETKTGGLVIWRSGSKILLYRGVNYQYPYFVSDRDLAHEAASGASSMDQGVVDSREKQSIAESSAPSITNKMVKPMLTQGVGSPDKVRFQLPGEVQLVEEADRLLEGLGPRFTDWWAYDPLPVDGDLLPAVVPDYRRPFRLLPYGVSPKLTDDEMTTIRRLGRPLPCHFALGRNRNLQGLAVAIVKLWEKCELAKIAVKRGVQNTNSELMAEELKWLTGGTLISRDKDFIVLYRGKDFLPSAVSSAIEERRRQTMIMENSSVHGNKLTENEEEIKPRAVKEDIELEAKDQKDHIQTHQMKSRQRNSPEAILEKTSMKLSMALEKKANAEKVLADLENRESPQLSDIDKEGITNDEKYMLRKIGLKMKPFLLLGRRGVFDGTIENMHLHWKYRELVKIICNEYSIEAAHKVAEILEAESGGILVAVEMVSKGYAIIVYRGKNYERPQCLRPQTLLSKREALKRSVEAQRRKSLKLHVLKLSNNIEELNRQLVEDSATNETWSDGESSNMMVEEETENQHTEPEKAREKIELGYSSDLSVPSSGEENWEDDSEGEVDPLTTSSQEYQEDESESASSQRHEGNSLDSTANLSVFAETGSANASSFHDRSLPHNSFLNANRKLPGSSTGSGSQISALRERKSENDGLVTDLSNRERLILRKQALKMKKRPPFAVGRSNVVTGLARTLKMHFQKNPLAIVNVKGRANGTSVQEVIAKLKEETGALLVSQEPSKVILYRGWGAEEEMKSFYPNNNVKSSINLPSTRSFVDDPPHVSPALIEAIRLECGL

[2] = molecular target: T2, CFM2 fused to C-terminal luciferase (CFM2-cLUC) (Arabidopsis thaliana) (UniProt Q8L7C2); test: split reporter
T2 sequence: T1 sequence

[3] = molecular target: T3, EMB1270 fused to C-terminal luciferase (EMB1270-cLUC) (Arabidopsis thaliana) (UniProt Q5G1S8); test: split reporter
T3 sequence: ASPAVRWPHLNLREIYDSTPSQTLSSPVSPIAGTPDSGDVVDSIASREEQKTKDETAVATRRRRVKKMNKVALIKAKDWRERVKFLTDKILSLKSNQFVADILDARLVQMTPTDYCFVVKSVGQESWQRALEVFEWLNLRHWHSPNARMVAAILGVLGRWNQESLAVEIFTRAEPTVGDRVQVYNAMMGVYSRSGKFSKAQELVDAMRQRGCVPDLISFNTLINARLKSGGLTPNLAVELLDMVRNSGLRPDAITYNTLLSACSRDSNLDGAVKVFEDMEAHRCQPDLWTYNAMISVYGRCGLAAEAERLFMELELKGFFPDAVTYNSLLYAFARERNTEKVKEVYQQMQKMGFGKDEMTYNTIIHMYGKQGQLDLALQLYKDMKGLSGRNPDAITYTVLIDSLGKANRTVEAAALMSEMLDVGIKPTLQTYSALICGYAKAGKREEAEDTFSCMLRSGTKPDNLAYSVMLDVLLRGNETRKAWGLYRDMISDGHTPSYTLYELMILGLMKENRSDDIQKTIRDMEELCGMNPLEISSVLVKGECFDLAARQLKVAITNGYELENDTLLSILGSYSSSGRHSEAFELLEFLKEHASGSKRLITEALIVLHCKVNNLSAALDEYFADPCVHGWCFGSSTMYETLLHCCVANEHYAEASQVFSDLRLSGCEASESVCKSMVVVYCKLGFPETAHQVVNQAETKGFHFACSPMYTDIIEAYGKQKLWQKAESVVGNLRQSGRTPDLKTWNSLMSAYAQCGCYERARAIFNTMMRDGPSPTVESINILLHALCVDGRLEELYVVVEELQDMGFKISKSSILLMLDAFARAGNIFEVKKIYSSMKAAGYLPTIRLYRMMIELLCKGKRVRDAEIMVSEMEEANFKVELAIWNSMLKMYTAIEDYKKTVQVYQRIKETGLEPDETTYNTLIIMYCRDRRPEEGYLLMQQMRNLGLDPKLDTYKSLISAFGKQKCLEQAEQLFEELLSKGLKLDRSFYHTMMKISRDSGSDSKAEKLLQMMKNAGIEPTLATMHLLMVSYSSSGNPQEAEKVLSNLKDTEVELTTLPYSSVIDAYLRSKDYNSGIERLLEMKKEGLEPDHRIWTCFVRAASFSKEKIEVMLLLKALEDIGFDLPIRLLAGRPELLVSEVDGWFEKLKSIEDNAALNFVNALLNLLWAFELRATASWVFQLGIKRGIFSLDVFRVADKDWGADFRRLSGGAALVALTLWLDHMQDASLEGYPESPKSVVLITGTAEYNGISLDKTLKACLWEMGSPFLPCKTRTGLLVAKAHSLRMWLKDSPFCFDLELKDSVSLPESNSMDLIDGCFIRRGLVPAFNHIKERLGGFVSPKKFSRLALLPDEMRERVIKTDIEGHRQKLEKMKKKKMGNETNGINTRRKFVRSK

[4] = molecular target: T4, EMB1270 (yeast two-hybrid fusion, transit peptide removed) (Arabidopsis thaliana) (UniProt Q5G1S8); test: two-hybrid
T4 sequence: T3 sequence

binding [1]: no binding
B1: EMB976 (yeast two-hybrid fusion, transit peptide removed) (protein, UniProt O04647 1-1038)
chain: MKSDFLTSTTHFNPSIFLPKIPSRNSRISIKSSSSSSKVRPDPWSLSDGNPEKPKPRYERPKHPLSDDDARRIIKKKAQYLSTLRRNQGSQAMTPKWIKRTPEQMVQYLEDDRNGQMYGKHVVAAIKTVRGLSQRRQGSDDMRFVMSSFVAKLSFRDMCVVLKEQRGWRQVRDFFSWMKLQLSYRPSVVVYTIVLRLYGQVGKIKMAEETFLEMLEVGCEPDAVACGTMLCTYARWGRHSAMLTFYKAVQERRILLSTSVYNFMLSSLQKKSFHGKVIDLWLEMVEEGVPPNEFTYTLVVSSYAKQGFKEEALKAFGEMKSLGFVPEEVTYSSVISLSVKAGDWEKAIGLYEDMRSQGIVPSNYTCATMLSLYYKTENYPKALSLFADMERNKIPADEVIRGLIIRIYGKLGLFHDAQSMFEETERLNLLADEKTYLAMSQVHLNSGNVVKALDVIEMMKTRDIPLSRFAYIVMLQCYAKIQNVDCAEEAFRALSKTGLPDASSCNDMLNLYTRLNLGEKAKGFIKQIMVDQVHFDIELYKTAMRVYCKEGMVAEAQDLIVKMGREARVKDNRFVQTLAESMHIVNKHDKHEAVLNVSQLDVMALGLMLNLRLKEGNLNETKAILNLMFKTDLGSSAVNRVISSFVREGDVSKAEMIADIIIRLGLRMEEETIATLIAVYGRQHKLKEAKRLYLAAGESKTPGKSVIRSMIDAYVRCGWLEDAYGLFMESAEKGCDPGAVTISILVNALTNRGKHREAEHISRTCLEKNIELDTVGYNTLIKAMLEAGKLQCASEIYERMHTSGVPCSIQTYNTMISVYGRGLQLDKAIEIFSNARRSGLYLDEKIYTNMIMHYGKGGKMSEALSLFSEMQKKGIKPGTPSYNMMVKICATSRLHHEVDELLQAMERNGRCTDLSTYLTLIQVYAESSQFAEAEKTITLVKEKGIPLSHSHFSSLLSALVKAGMMEEAERTYCKMSEAGISPDSACKRTILKGYMTCGDAEKGILFYEKMIRSSVEDDRFVSSVVEDLYKAVGKEQDV

binding [2]: binds
binding [3]: binds
B2: EMB1006 fused to N-terminal luciferase (EMB1006-nLUC) (protein, UniProt Q9FGR7 45-723)
chain: ATSPSSSSSSPSIFLSCFDDALPDKIQQPENSTINSEESECEEEDDEEGDDFTDPILKFFKSRTLTSESTADPARESKFSLQKNRRTSWHLAPDFADPETEIESKPEESVFVTNQQTLGVHIPFESGVAREILELAKNLKENQTLGEMLSGFERRVSDTECVEALVMMGESGFVKSCLYFYEWMSLQEPSLASPRACSVLFTLLGRERMADYILLLLSNLPDKEEFRDVRLYNAAISGLSASQRYDDAWEVYEAMDKINVYPDNVTCAILITTLRKAGRSAKEVWEIFEKMSEKGVKWSQDVFGGLVKSFCDEGLKEEALVIQTEMEKKGIRSNTIVYNTLMDAYNKSNHIEEVEGLFTEMRDKGLKPSAATYNILMDAYARRMQPDIVETLLREMEDLGLEPNVKSYTCLISAYGRTKKMSDMAADAFLRMKKVGLKPSSHSYTALIHAYSVSGWHEKAYASFEEMCKEGIKPSVETYTSVLDAFRRSGDTGKLMEIWKLMLREKIKGTRITYNTLLDGFAKQGLYIEARDVVSEFSKMGLQPSVMTYNMLMNAYARGGQDAKLPQLLKEMAALNLKPDSITYSTMIYAFVRVRDFKRAFFYHKMMVKSGQVPDPRSYEKLRAILEDKAKTKNRKDKTAILGIINSKFGRVKAKTKGKKDEFWKYKTNRTTSPGRHRS

binding [3]: binds
B3: CFM2 fused to N-terminal luciferase (CFM2-nLUC) (protein, UniProt Q8L7C2 46-1011)
chain: T1 sequence

binding [1]: binds
B4: EMB1006-NT (EMB1006 amino acids 44-273, Non-PPR domain) (domain or fragment, UniProt Q9FGR7 44-273)
chain: SATSPSSSSSSPSIFLSCFDDALPDKIQQPENSTINSEESECEEEDDEEGDDFTDPILKFFKSRTLTSESTADPARESKFSLQKNRRTSWHLAPDFADPETEIESKPEESVFVTNQQTLGVHIPFESGVAREILELAKNLKENQTLGEMLSGFERRVSDTECVEALVMMGESGFVKSCLYFYEWMSLQEPSLASPRACSVLFTLLGRERMADYILLLLSNLPDKEEFRDV

binding [4]: no binding
B5: EMB1006-CT (EMB1006 amino acids 273-724, 11 PPR motifs) (domain or fragment, UniProt Q9FGR7 273-723)
chain: VRLYNAAISGLSASQRYDDAWEVYEAMDKINVYPDNVTCAILITTLRKAGRSAKEVWEIFEKMSEKGVKWSQDVFGGLVKSFCDEGLKEEALVIQTEMEKKGIRSNTIVYNTLMDAYNKSNHIEEVEGLFTEMRDKGLKPSAATYNILMDAYARRMQPDIVETLLREMEDLGLEPNVKSYTCLISAYGRTKKMSDMAADAFLRMKKVGLKPSSHSYTALIHAYSVSGWHEKAYASFEEMCKEGIKPSVETYTSVLDAFRRSGDTGKLMEIWKLMLREKIKGTRITYNTLLDGFAKQGLYIEARDVVSEFSKMGLQPSVMTYNMLMNAYARGGQDAKLPQLLKEMAALNLKPDSITYSTMIYAFVRVRDFKRAFFYHKMMVKSGQVPDPRSYEKLRAILEDKAKTKNRKDKTAILGIINSKFGRVKAKTKGKKDEFWKYKTNRTTSPGRHRS
